Measured values reported in patent publication US20210214733A1.
Results are given in words; binding and its absence hold for the method and conditions named. Some entries that bind do so weakly or less than the wild type.

Assays:
[1] = target: MT5: recombinant VEGF MiniTrap (dimer) (human); experiment: affinity chromatography, MT5 captured on immobilised mAb and eluted at low pH
[2] = target: MT5: recombinant VEGF MiniTrap (dimer) (human); experiment: affinity chromatography, ligand coupled to HiTrap NHS-activated HP column

binding [1]: binds
binding [2]: binds
B1: mAb4 (a mouse anti-VEGFR1 mAb mouse IgG1) (antibody, V domains shown)
VH: EVQLVESGGDLVKPGGSLKLSCAASGFTFSDSGMSWVRQTPDKRLEWVATISSGGGYTYYSDSVEGRFTISRDNANNTLFLQMSSLKSEDTAMFYCARLGNYGGYYGMDYWGQGTSVTVSS
VL: DIQMTQSPSSLSASLGGKVTITCKTSQDSNKYIAWYQHKPGKGPRLLIHYTSTLQPGIPSRFSGSGSGRDYSFSISNLEPEDIATYYCLQYDNLWTFGGGTKLEIKR
